Reference: patent US20090158448A1 (NATIONAL UNIVERSITY CORPORATION TOKYO MEDICAL AND DENTAL …, published 2009)
These are yes or no findings as the source states them, for the method shown. In cells and extracts the contact can be indirect. Some results given as binding are weak or reduced against the parent protein; the word gives no strength. Where a sequence is shown, tags or fusion partners need not be part of it.

T1: wild type human Dok-7 protein (human) (UniProt Q18PE1)
T1 sequence: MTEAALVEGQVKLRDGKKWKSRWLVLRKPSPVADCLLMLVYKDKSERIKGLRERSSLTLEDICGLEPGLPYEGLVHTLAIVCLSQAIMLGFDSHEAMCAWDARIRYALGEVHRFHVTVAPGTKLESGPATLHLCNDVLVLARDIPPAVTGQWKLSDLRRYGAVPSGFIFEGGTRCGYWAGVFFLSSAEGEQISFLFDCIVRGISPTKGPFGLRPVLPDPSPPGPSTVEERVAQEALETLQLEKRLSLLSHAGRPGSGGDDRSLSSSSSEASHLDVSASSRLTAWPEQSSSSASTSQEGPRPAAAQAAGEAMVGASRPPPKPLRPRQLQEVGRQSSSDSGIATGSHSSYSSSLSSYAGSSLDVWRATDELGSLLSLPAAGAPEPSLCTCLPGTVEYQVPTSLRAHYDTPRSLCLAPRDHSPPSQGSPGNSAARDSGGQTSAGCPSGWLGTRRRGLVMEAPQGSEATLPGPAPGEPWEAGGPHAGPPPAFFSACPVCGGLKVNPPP

T2: wild type (WT) mouse MuSK fused to myc tag (mouse) (UniProt Q61006)
T2 sequence: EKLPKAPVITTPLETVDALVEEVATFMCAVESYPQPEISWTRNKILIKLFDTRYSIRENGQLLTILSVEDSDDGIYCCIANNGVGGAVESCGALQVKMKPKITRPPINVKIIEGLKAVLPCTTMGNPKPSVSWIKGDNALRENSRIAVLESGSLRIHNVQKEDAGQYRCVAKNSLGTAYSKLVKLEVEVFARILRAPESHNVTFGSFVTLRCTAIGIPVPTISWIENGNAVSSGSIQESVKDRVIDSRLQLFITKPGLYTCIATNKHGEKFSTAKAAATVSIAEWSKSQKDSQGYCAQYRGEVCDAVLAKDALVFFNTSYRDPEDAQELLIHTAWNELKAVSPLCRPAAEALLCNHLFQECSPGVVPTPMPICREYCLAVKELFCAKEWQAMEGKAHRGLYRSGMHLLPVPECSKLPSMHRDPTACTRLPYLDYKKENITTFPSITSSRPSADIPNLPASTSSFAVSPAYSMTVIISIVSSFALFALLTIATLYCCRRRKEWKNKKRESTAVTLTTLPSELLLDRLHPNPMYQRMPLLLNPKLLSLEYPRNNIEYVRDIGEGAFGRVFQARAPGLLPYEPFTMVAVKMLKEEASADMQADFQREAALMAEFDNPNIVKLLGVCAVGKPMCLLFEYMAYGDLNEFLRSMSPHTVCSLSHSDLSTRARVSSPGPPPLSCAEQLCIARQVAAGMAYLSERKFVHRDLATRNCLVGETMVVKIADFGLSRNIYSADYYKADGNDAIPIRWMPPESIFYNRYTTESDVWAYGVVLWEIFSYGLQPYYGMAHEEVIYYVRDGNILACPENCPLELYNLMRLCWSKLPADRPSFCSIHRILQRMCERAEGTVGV


Assays:
[1] = target: T1, wild type human Dok-7 protein (human); assay: co-immunoprecipitation (anti-myc) and western, 293T cell lysate
[2] = target: T2, wild type (WT) mouse MuSK fused to myc tag (mouse); assay: as above

binding [1] | binding [2] | Binder
binds | – | wild type (WT) mouse MuSK fused to myc tag (receptor, not shown: small tags and cut ends) EKLPKAPVITTPLETVDALVEEVATFMCAVESYPQPEISWTRNKILIKLFDTRYSIRENGQLLTILSVEDSDDGIYCCIANNGVGGAVESCGALQVKMKPKITRPPINVKIIEGLKAVLPCTTMGNPKPSVSWIKGDNALRENSRIAVLESGSLRIHNVQKEDAGQYRCVAKNSLGTAYSKLVKLEVEVFARILRAPESHNVTFGSFVTLRCTAIGIPVPTISWIENGNAVSSGSIQESVKDRVIDSRLQLFITKPGLYTCIATNKHGEKFSTAKAAATVSIAEWSKSQKDSQGYCAQYRGEVCDAVLAKDALVFFNTSYRDPEDAQELLIHTAWNELKAVSPLCRPAAEALLCNHLFQECSPGVVPTPMPICREYCLAVKELFCAKEWQAMEGKAHRGLYRSGMHLLPVPECSKLPSMHRDPTACTRLPYLDYKKENITTFPSITSSRPSADIPNLPASTSSFAVSPAYSMTVIISIVSSFALFALLTIATLYCCRRRKEWKNKKRESTAVTLTTLPSELLLDRLHPNPMYQRMPLLLNPKLLSLEYPRNNIEYVRDIGEGAFGRVFQARAPGLLPYEPFTMVAVKMLKEEASADMQADFQREAALMAEFDNPNIVKLLGVCAVGKPMCLLFEYMAYGDLNEFLRSMSPHTVCSLSHSDLSTRARVSSPGPPPLSCAEQLCIARQVAAGMAYLSERKFVHRDLATRNCLVGETMVVKIADFGLSRNIYSADYYKADGNDAIPIRWMPPESIFYNRYTTESDVWAYGVVLWEIFSYGLQPYYGMAHEEVIYYVRDGNILACPENCPLELYNLMRLCWSKLPADRPSFCSIHRILQRMCERAEGTVGV
– | binds | wild type human Dok-7 protein (other, also called WT; polypeptide of the present invention) MTEAALVEGQVKLRDGKKWKSRWLVLRKPSPVADCLLMLVYKDKSERIKGLRERSSLTLEDICGLEPGLPYEGLVHTLAIVCLSQAIMLGFDSHEAMCAWDARIRYALGEVHRFHVTVAPGTKLESGPATLHLCNDVLVLARDIPPAVTGQWKLSDLRRYGAVPSGFIFEGGTRCGYWAGVFFLSSAEGEQISFLFDCIVRGISPTKGPFGLRPVLPDPSPPGPSTVEERVAQEALETLQLEKRLSLLSHAGRPGSGGDDRSLSSSSSEASHLDVSASSRLTAWPEQSSSSASTSQEGPRPAAAQAAGEAMVGASRPPPKPLRPRQLQEVGRQSSSDSGIATGSHSSYSSSLSSYAGSSLDVWRATDELGSLLSLPAAGAPEPSLCTCLPGTVEYQVPTSLRAHYDTPRSLCLAPRDHSPPSQGSPGNSAARDSGGQTSAGCPSGWLGTRRRGLVMEAPQGSEATLPGPAPGEPWEAGGPHAGPPPAFFSACPVCGGLKVNPPP
